Measurements published in PubChem BioAssay AID330 (DTP/NCI, 2004).
The list does not hold the whole screen: it is rich in T/C values a quarter to a half above the control, in often repeated tests (any T/C) and in doses without a T/C. Further doses and runs are listed elsewhere. T/C is the treated group as % of the vehicle group. Some doses have a count of surviving animals in place of a T/C: the source holds a T/C of zero for them, seemingly a mark for toxic or unscored doses. Some doses without a T/C left all or most animals alive at the check, yet need not have been tolerated: the source hardly ever lists a survival T/C far under the control, and the zero likely stands for such cases as well. Counts of survivors are from the toxicity check (mostly the fifth day) where no day follows; animals may have died later. Schedules are NCI's codes, read here as Q, the interval in days (D) or hours (H), X, the number of doses. Some entries were tested several times; the results are listed from low to high. Some structures stand for samples that the source files as different forms (salt, stereo form or complex); doses refer to the form tested. Where survival is the endpoint, the PubChem record calls one and a half times the control and up active, and a quarter to a half above the control has no call in these data; cut-offs in other NCI protocols can differ. Some T/C values are followed by the survivors on the day toxicity was checked, most often the fifth; without a count, all were alive then.

Test system: P388 leukemia ip, CD2F1 mice, survival T/C
Assay: NCI In Vivo Anticancer Drug Screen. Data for tumor model P388 Leukemia (intraperitoneal) in CD2F1 (CDF1) mice
Settings: T/C endpoint: median survival time, higher T/C = longer survival
[1] = dose: 50.0 mg/kg/injection, schedule: Q01DX009 (ip), vehicle: Klucel (hydroxypropylcellulose) (HPC)
[2] = dose: 200.0 mg/kg/injection, schedule: Q01DX009 (ip), vehicle: Klucel (hydroxypropylcellulose) (HPC)
[3] = dose: 200.0 mg/kg/injection, schedule: Q01DX005 (ip), vehicle: Klucel (hydroxypropylcellulose) (HPC)
[4] = dose: 200.0 mg/kg/injection, schedule: Q01DX009 (ip), vehicle: saline
[5] = dose: 50.0 mg/kg/injection, schedule: Q01DX005 (ip), vehicle: Klucel (hydroxypropylcellulose) (HPC)
[6] = dose: 100.0 mg/kg/injection, schedule: Q01DX005 (ip), vehicle: Klucel (hydroxypropylcellulose) (HPC)
[7] = dose: 60.0 mg/kg/injection, schedule: Q01DX005 (ip), vehicle: saline with Tween-80
[8] = dose: 120.0 mg/kg/injection, schedule: Q01DX005 (ip), vehicle: saline with Tween-80
[9] = dose: 400.0 mg/kg/injection, schedule: Q01DX009 (ip), vehicle: saline with Tween-80
[10] = dose: 200.0 mg/kg/injection, schedule: Q01DX005 (ip), vehicle: saline with Tween-80
[11] = dose: 100.0 mg/kg/injection, schedule: Q01DX005 (ip), vehicle: saline with Tween-80

SMILES: CN(C)c1cc(N(C)C)c2ccccc2n1
- survivor count [1]: 0 of 6 and 2 of 6
- survivor count [2]: 0 of 6

SMILES: N#CC1CCCC(C#N)N1CN1C(C#N)CCCC1C#N (stereo not drawn)
- survivor count [3]: 5 of 5

SMILES: CSCCC(NP(=S)(c1ccccc1)c1ccccc1)C(=O)O (stereo not drawn)
- survivor count (dose: 100.0 mg/kg/injection, schedule: Q01DX009 (ip), vehicle: Klucel (hydroxypropylcellulose) (HPC)): 6 of 6

SMILES: CCCCCCCCCCCCCC[N+]1([O-])CCCCCC1
- survivor count (dose: 100.0 mg/kg/injection, schedule: Q01DX009 (ip), vehicle: saline): 4 of 6
- survivor count [4]: 0 of 6

SMILES: CC(=O)C(C(=O)Nc1cccc2ccccc12)C(C)=NCC(C)N=C(C)C(C(C)=O)C(=O)Nc1cccc2ccccc12.[Cu] (stereo not drawn)
- survivor count (dose: 50.0 mg/kg/injection, schedule: Q01DX005 (ip), vehicle: saline + Tween-80 + alcohol): 2 of 5
- survivor count (dose: 100.0 mg/kg/injection, schedule: Q01DX005 (ip), vehicle: saline + Tween-80 + alcohol): 0 of 5
- survivor count (dose: 200.0 mg/kg/injection, schedule: Q01DX005 (ip), vehicle: saline + Tween-80 + alcohol): 0 of 5

SMILES: COC(=O)c1cc(=O)n(-c2ccc(OC)cc2)c(SC)n1
- survivor count (dose: 400.0 mg/kg/injection, schedule: Q04DX003 (ip), vehicle: saline with Tween-80): 4 of 6

SMILES: COC(=O)Nc1csc2c1NC(=O)CCCC2
- T/C (dose: 100.0 mg/kg/injection, schedule: Q04DX003 (ip), vehicle: Klucel (hydroxypropylcellulose) (HPC)): 142 % of control

SMILES: CCCCCCCCC#CCCCCCCCCCCCC(=O)O
- survivor count (dose: 100.0 mg/kg/injection, schedule: Q01DX009 (ip), vehicle: saline with Tween-80): 4 of 6

SMILES: C=C(C#N)N(C)c1ccccc1
- survivor count [5]: 0 of 6
- survivor count [6]: 0 of 6
- survivor count [3]: 0 of 6

SMILES: CC(C)(C)c1ccc(-c2cc3nc(C(F)(F)F)cc(=O)n3[nH]2)cc1
- survivor count (dose: 30.0 mg/kg/injection, schedule: Q01DX005 (ip), vehicle: saline with Tween-80): 6 of 6
- survivor count [7]: 6 of 6
- survivor count [8]: 6 of 6

SMILES: O=C(NC(Cc1cccc(F)c1)C(=O)O)c1ccccc1 (stereo not drawn)
- survivor count (dose: 25.0 mg/kg/injection, schedule: Q01DX009 (ip), vehicle: other): 1 of 6 and 5 of 6
- survivor count (dose: 50.0 mg/kg/injection, schedule: Q01DX009 (ip), vehicle: other): 1 of 6
- survivor count (dose: 100.0 mg/kg/injection, schedule: Q01DX009 (ip), vehicle: other): 0 of 6

SMILES: COC(=O)Nn1cc(C(C(C)=O)C(C)=O)c(C(C)=O)c1C
- survivor count [3]: 3 of 6

SMILES: CC(C)CC(=O)CC(O)(C(F)(F)F)C(F)(F)F
- survivor count [9]: 2 of 6

SMILES: CC(SC(C)C(=O)O)C(=O)O (stereo not drawn)
- survivor count (dose: 400.0 mg/kg/injection, schedule: Q04DX002 (ip), vehicle: saline): 3 of 6

SMILES: COc1cc(OC)c(NC(=S)Nc2cc(C)ccc2OC)cc1Cl
- survivor count (dose: 200.0 mg/kg/injection, schedule: Q01DX009 (ip), vehicle: DMSO): 6 of 6

SMILES: CSc1cccc(N=C(N)N)c1
- survivor count [4]: 2 of 6

SMILES: C=C(Cl)C(=NC(C)(C)C)Nc1ccccc1C
- T/C (dose: 12.5 mg/kg/injection, schedule: Q01DX005 (ip), vehicle: Klucel (hydroxypropylcellulose) (HPC)): 127 % of control
- T/C (dose: 25.0 mg/kg/injection, schedule: Q01DX005 (ip), vehicle: Klucel (hydroxypropylcellulose) (HPC)): 132 % of control
- survivor count (dose: 25.0 mg/kg/injection, schedule: Q01DX005 (ip), vehicle: saline): 0 of 6
- survivor count [5]: 3 of 6
- survivor count (dose: 50.0 mg/kg/injection, schedule: Q01DX005 (ip), vehicle: saline): 0 of 6
- survivor count [6]: 0 of 6
- survivor count (dose: 100.0 mg/kg/injection, schedule: Q01DX005 (ip), vehicle: saline): 0 of 6
- survivor count [3]: 0 of 6
- survivor count (dose: 200.0 mg/kg/injection, schedule: Q01DX005 (ip), vehicle: saline): 0 of 6

SMILES: C(=N\NC1=NCCN1)/c1c[nH]c2ccccc12
- survivor count [10]: 0 of 6

SMILES: C[C@@H]1C[C@@H]2OC(=O)[C@]3(C)[C@H]2[C@@H](OC3(C)O)[C@]2(C)C(=O)C=C[C@@H]12 (stereo partly drawn)
- T/C (dose: 34.0 mg/kg/injection, schedule: Q01DX009 (ip), vehicle: Klucel (hydroxypropylcellulose) (HPC)): 128 and 135 % of control
- T/C (dose: 68.0 mg/kg/injection, schedule: Q01DX009 (ip), vehicle: Klucel (hydroxypropylcellulose) (HPC)): 135 % of control

SMILES: O=[N+]([O-])c1ccc(/C=N/Nc2nnc(-c3ccccc3)c(-c3ccccc3)n2)o1
- survivor count [11]: 6 of 6

SMILES: CC(C)(C)OC(=O)C(N)C(F)C(=O)OC(C)(C)C (stereo not drawn)
- survivor count (dose: 200.0 mg/kg/injection, schedule: Q04DX003 (ip), vehicle: saline with Tween-80): 6 of 6

SMILES: C1=CC2(C=CCC1)OCCO2
- survivor count [11]: 0 of 6
- survivor count [10]: 0 of 5

SMILES: CCC1CN1P(=O)(Oc1ccc2ccccc2c1)N1CC1CC (stereo not drawn)
- T/C (dose: 22.0 mg/kg/injection, schedule: Q01DX009 (ip), vehicle: saline with Tween-80): 137 % of control
- T/C (dose: 33.0 mg/kg/injection, schedule: Q01DX009 (ip), vehicle: saline with Tween-80): 132 % of control
- T/C (dose: 44.0 mg/kg/injection, schedule: Q01DX009 (ip), vehicle: saline with Tween-80): 127 % of control
- T/C (dose: 66.0 mg/kg/injection, schedule: Q01DX009 (ip), vehicle: saline with Tween-80): 131 % of control
- T/C (dose: 100.0 mg/kg/injection, schedule: Q04DX003 (ip), vehicle: saline with Tween-80): 136 % of control [4 of 6 alive]
- survivor count [9]: 4 of 6

SMILES: Cl/C(=N\Nc1ccccc1)c1ccccc1
- survivor count (dose: 25.0 mg/kg/injection, schedule: Q01DX009 (ip), vehicle: Klucel (hydroxypropylcellulose) (HPC)): 1 of 6
- survivor count [1]: 2 of 6

SMILES: FC(F)(F)C1(C(F)(F)F)[O][Sb]([c]2ccccc2)([c]2ccccc2)([c]2ccccc2)[O]1
- survivor count [2]: 1 of 6

SMILES: CC(C)(C)OC(=O)NC(Cc1ccccc1)C(=O)O (stereo not drawn)
- survivor count (dose: 12.5 mg/kg/injection, schedule: Q01DX009 (ip), vehicle: Klucel (hydroxypropylcellulose) (HPC)): 6 of 6

SMILES: COC(=O)C1=C(C(=O)OC)C2OC1c1cc3ccccc3cc12
- survivor count [7]: 4 of 6
- survivor count [8]: 0 of 6
- survivor count (dose: 240.0 mg/kg/injection, schedule: Q01DX005 (ip), vehicle: saline with Tween-80): 0 of 6

SMILES: O=C1C(=O)c2ccc3c(c2-c2cc4c(cc21)OCO4)OCO3
- survivor count (dose: 240.0 mg/kg/injection, schedule: Q01DX005 (ip), vehicle: Klucel (hydroxypropylcellulose) (HPC)): 6 of 6

SMILES: O=C1CN=C(c2ccccn2)c2cc(Cl)ccc2N1CCO
- survivor count [9]: 3 of 6

SMILES: N=C(N)c1ccc(-c2ccc(-c3ccc(C(=N)N)cc3)o2)cc1
- T/C (dose: 12.5 mg/kg/injection, schedule: Q01DX009 (ip), vehicle: saline with Tween-80): 128 % of control
